This note sets out measurements from the supplement of paper PMC12823440, “Inhibitors supercharge kinase turnover through native proteolytic circuits” (Nature, 2025).

Amino acid sequences for entries named in this document (tags omitted).
UniProt P36888, whole entry: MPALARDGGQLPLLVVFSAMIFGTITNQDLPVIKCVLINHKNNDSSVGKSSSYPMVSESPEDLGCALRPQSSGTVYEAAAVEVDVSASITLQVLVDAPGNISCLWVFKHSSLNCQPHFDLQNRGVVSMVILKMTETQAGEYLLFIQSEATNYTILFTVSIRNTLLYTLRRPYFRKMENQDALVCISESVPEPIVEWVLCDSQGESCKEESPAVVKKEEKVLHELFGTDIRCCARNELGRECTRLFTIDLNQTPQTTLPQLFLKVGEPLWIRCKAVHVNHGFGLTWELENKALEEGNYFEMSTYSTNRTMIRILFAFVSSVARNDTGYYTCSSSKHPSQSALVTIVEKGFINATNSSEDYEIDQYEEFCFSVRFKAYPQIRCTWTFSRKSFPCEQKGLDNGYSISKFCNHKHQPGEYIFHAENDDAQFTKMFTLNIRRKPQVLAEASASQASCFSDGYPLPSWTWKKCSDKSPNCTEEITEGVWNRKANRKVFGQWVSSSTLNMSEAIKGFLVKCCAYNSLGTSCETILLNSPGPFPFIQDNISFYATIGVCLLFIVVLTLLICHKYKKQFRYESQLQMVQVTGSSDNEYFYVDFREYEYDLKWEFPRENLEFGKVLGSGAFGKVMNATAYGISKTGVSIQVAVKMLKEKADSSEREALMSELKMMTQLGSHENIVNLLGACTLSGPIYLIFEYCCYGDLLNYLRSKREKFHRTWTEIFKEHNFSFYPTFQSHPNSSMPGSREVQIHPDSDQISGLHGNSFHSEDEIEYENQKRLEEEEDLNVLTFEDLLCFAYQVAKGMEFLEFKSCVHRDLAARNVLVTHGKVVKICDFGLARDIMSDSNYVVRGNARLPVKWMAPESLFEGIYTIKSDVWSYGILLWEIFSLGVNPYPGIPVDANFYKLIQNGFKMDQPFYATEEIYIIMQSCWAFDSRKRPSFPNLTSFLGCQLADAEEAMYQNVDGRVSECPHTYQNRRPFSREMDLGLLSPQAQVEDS
UniProt P06241, whole entry, looked up: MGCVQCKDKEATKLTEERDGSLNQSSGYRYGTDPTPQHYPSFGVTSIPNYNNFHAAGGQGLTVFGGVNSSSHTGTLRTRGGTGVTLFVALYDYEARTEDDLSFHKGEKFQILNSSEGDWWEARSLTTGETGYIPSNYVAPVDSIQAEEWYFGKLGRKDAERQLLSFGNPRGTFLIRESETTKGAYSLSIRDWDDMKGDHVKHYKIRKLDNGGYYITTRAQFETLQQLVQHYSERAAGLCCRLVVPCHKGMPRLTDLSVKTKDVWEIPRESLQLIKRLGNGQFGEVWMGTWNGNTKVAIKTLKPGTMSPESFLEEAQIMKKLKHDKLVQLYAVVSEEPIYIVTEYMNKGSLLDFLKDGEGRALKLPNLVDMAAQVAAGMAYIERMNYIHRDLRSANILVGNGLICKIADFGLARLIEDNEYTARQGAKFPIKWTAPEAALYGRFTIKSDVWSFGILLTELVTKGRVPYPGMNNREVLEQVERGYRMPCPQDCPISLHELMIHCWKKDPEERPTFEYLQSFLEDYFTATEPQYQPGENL

Counter-ions that a name gives are not always drawn. The list shows a part of the results. Hit calls seldom repeat between salt and free forms of one compound.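 In K562 cells expressing nanoluciferase-fused kinases, luminescence was recorded at 4 h intervals between 2 and 18 h, normalized as percent of control with DMSO at 100% and a positive control at 0%. A significant (2 sigma) signal drop marks a time point as decreased. The authors' rule for a hit is not shown and takes in more than the number of time points.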

The first experiment addresses FLT3 (UniProt P36888). The experiment can be described thus: number of time points (of 5) at which kinase-Nluc abundance scored as decreased, DMSO-normalised (count); higher = more persistent destabilization. As to conditions: K562; 2-18 h.
For `CC(C)=CCC/C(C)=C/CC/C(C)=C/C=C/C(C)=C/C(=O)O` [Peretinoin] (10 µM), the “number of time points” value is 0.
On to `C=CC(=O)N1CC[C@@H](Oc2nc(Nc3ccc(N4CCC(N5CCN(C)CC5)CC4)cc3)c(C(N)=O)nc2CC)C1` [Naquotinib (mesylate)] (2.5 µM), for which the “number of time points” value is 0.
For the compound `CC(Sc1nc2c(cnn2-c2cccc(Cl)c2)c(=O)[nH]1)C(N)=O` (stereo not drawn) (10 µM), the “number of time points” value came out at 0.
As for `Cc1cc(O)c2c(c1)C(=O)c1cccc(O)c1C2=O` [Chrysophanol] (2 µM), the “number of time points” value was 0.
As for `O=C1OC(/C=C/c2ccccc2)=NC/1=C\c1cccnc1` (10 µM), the “number of time points” value amounted to 0.

For a further experiment, the target named is FYN (UniProt P06241). The description is as above. As to conditions: K562; 2-18 h.
For `CN1CCN(c2cc(-c3ccncc3)c(-c3ccc4ccccc4c3)nn2)CC1` (10 µM), the “number of time points” value came to 0.
In the case of `CC(O)(C#Cc1ccc2c(c1)N(c1nc(N)ncc1Cl)CC2)c1nccs1` (stereo not drawn) (2.5 µM), the “number of time points” value came to 0.
Consider `COc1ccc(Nc2ncc(C(F)(F)F)c(NC3CC3)n2)cc1OC` (10 µM), for which the “number of time points” value stood at 3.
Consider `O=c1cc(N2CCOCC2)oc2c(-c3ccc4c(c3)OCCO4)csc12` (2.5 µM), for which the “number of time points” value was determined as 0.
As for `N[C@@H]1CCCN(c2c(/C=C3\SC(=O)NC3=O)cccc2-c2ccccc2)C1` (10 µM), the “number of time points” value was found to be 1.
As for `N#Cc1ccc(-c2cnc3[nH]cc(NC(=O)c4cccnc4)c3c2)cc1` (10 µM), the “number of time points” value was determined as 0.
Turning to `COc1ccc(Br)cc1NC(=O)Nc1cccc2c1ccn2Cc1ccnc(N)c1` (2.5 µM), the “number of time points” value was found to be 0.
Same read-out and setting: then `COc1cc(N2CCOCC2)ccc1Nc1ncc(F)c(Nc2ccccc2NS(C)(=O)=O)n1` (10 µM), with 0.
With `COc1ccc(-c2cc(=O)c3c(OC)cc(OC)c(OC)c3o2)cc1` [6-Demethoxytangeretin] (10 µM), the “number of time points” value is 0.
On to `COc1cc2c(cc1O)C[C@H]1c3cc(O)c(OC)cc3CC[N@@+]1(C)C2` [Phellodendrine] (10 µM), for which the “number of time points” value was found to be 0.
As to `CO[C@H]1C[C@@H]2CC[C@@H](C)[C@@](O)(O2)C(=O)C(=O)N2CCCC[C@H]2C(=O)O[C@H]([C@H](C)C[C@@H]2CC[C@@H](OC(=O)C(C)(CO)CO)[C@H](OC)C2)CC(=O)[C@H](C)/C=C(\C)[C@@H](O)[C@@H](OC)C(=O)[C@H](C)C[C@H](C)/C=C/C=C/C=C/1C` [Temsirolimus] (2.5 µM), the “number of time points” value came to 0.
Regarding `O=C(ON=C1c2ccccc2-c2nc3ccccc3nc21)c1ccco1` (2.5 µM), the “number of time points” value turned out to be 0.
Turning to `COc1ccc(S(=O)(=O)Nc2cc(-c3c(O)ccc4ccccc34)c(O)c3ccccc23)cc1` (10 µM), the “number of time points” value is 0.
On the same count and under the same terms, with `Cc1cccc(COc2cccc(/C=C3\C(=O)NN(c4ccccc4)C3=O)c2)c1` (10 µM) the figure was 0; with `CC(C)Oc1ccc(F)c(-c2cnc(N)c(C(=O)Nc3cnccc3N3CCC[C@@H](C(=O)O)C3)n2)c1` (2 µM), 0.
For `COc1cc(F)ccc1-c1ncnc(Nc2cccc(C[S@](C)(=N)=O)c2)n1` [Atuveciclib] (2.5 µM), the “number of time points” value was 1.
On to `CC(C)n1ncnc1-c1cn2c(n1)-c1ccc(O[C@@H](C)C(N)=O)cc1OCC2` (10 µM), for which the “number of time points” value turned out to be 0.
Same read-out and setting: then `Cn1c(CNc2cccc(C(=O)NCc3ccccc3C(F)(F)F)c2)nnc1-c1ccncc1` (10 µM), with 0; and `O=Nc1c(-c2c(O)[nH]c3cc(Br)ccc23)[nH]c2ccccc12` [GSK 3 Inhibitor IX] (2.5 µM), with 0.
On to `Nc1ncc(C(=O)NC2CN(C(=O)C3CC3)C2)c2ccc(-c3cccc(F)c3)nc12` (2 µM), for which the “number of time points” value was determined as 0.
`O=C(Nc1cc(Cl)cc2c1[nH]c1cnccc12)c1cccnc1` (10 µM): the “number of time points” value was determined as 0.
Same read-out and setting: then `c1ccc(Cn2c(-c3ccc(OC[C@H](C4CCNCC4)n4c(-c5ccccc5)nc5ccccc54)cc3)nc3ccccc32)cc1` [Deltarasin] (2.5 µM), with 0; and `COc1cc2ncnc(Nc3cccc(I)c3)c2cc1OC` (2.5 µM), with 0.
For the compound `Clc1ccc(C(c2ccc(Cl)cc2)[n+]2ccn(CC(OCc3ccc(Cl)cc3Cl)c3ccc(Cl)cc3Cl)c2)cc1` (stereo not drawn) [Calmidazolium chloride] (2.5 µM), the “number of time points” value amounted to 0.
The same measure, in the same setting: then `O=C(Nc1cccnc1)c1cc(-c2ccnc(F)c2)ccc1OCc1ccccc1` (10 µM), with 0; and `c1nn(C2CCOCC2)cc1Nc1ncc2nnn(-c3ccc4cn[nH]c4c3)c2n1` (10 µM), with 0; and `COC(=O)[C@H](CCSC)NC(=O)c1ccc(NC[C@@H](N)CS)cc1-c1ccccc1` [FTI-277 (hydrochloride)] (10 µM), with 0.
With `Cc1cc(Nc2cc(N)ncn2)c(=O)n2c1C(=O)NC21CCCCC1` [Tomivosertib] (10 µM), the “number of time points” value was found to be 0.
For the compound `CCc1c[nH]c2ncnc(N3CC[C@](N)(CNC(=O)c4ccc(F)cc4F)C3)c12` (10 µM), the “number of time points” value turned out to be 0.
Still for that read-out and setting: with `Nc1ncnc2c1nc(Br)n2[C@@H]1O[C@@H]2COP(=O)(O)O[C@H]2[C@H]1O` [8-Bromo-cAMP sodium salt] (10 µM) the figure was 0; with `CC(C)n1c(=O)n(C)c2cnc3cc(F)c(-c4ccc(OCCCN5CCCCC5)nc4)cc3c21` (10 µM), 0.
Turning to `Cc1ccc(C)c(OCCn2cc(C(=O)O)c3ccccc32)c1` (10 µM), the “number of time points” value was determined as 0.
Same read-out and setting: with `COCCOc1ccc2c(c1)ncn2-c1ccc2cccc(N3CCC(N)CC3)c2n1` (10 µM) the figure was 4.
For the compound `CC(C)=CCC/C(C)=C/CC/C(C)=C/C=C/C(C)=C/C(=O)O` [Peretinoin] (10 µM), the “number of time points” value was 0.
As to `C=CC(=O)N1CC[C@@H](Oc2nc(Nc3ccc(N4CCC(N5CCN(C)CC5)CC4)cc3)c(C(N)=O)nc2CC)C1` [Naquotinib (mesylate)] (2.5 µM), the “number of time points” value came to 0.
For `CC(Sc1nc2c(cnn2-c2cccc(Cl)c2)c(=O)[nH]1)C(N)=O` (stereo not drawn) (10 µM), the “number of time points” value was 0.
On to `Cc1cc(O)c2c(c1)C(=O)c1cccc(O)c1C2=O` [Chrysophanol] (2 µM), for which the “number of time points” value was found to be 0.
As for `O=C1OC(/C=C/c2ccccc2)=NC/1=C\c1cccnc1` (10 µM), the “number of time points” value was found to be 0.
